Binding data for one substance are collected here from article PMC8316719.

Sequences of proteins named here, by UniProt entry; tags and fusion partners are left off.
UniProt Q8C170: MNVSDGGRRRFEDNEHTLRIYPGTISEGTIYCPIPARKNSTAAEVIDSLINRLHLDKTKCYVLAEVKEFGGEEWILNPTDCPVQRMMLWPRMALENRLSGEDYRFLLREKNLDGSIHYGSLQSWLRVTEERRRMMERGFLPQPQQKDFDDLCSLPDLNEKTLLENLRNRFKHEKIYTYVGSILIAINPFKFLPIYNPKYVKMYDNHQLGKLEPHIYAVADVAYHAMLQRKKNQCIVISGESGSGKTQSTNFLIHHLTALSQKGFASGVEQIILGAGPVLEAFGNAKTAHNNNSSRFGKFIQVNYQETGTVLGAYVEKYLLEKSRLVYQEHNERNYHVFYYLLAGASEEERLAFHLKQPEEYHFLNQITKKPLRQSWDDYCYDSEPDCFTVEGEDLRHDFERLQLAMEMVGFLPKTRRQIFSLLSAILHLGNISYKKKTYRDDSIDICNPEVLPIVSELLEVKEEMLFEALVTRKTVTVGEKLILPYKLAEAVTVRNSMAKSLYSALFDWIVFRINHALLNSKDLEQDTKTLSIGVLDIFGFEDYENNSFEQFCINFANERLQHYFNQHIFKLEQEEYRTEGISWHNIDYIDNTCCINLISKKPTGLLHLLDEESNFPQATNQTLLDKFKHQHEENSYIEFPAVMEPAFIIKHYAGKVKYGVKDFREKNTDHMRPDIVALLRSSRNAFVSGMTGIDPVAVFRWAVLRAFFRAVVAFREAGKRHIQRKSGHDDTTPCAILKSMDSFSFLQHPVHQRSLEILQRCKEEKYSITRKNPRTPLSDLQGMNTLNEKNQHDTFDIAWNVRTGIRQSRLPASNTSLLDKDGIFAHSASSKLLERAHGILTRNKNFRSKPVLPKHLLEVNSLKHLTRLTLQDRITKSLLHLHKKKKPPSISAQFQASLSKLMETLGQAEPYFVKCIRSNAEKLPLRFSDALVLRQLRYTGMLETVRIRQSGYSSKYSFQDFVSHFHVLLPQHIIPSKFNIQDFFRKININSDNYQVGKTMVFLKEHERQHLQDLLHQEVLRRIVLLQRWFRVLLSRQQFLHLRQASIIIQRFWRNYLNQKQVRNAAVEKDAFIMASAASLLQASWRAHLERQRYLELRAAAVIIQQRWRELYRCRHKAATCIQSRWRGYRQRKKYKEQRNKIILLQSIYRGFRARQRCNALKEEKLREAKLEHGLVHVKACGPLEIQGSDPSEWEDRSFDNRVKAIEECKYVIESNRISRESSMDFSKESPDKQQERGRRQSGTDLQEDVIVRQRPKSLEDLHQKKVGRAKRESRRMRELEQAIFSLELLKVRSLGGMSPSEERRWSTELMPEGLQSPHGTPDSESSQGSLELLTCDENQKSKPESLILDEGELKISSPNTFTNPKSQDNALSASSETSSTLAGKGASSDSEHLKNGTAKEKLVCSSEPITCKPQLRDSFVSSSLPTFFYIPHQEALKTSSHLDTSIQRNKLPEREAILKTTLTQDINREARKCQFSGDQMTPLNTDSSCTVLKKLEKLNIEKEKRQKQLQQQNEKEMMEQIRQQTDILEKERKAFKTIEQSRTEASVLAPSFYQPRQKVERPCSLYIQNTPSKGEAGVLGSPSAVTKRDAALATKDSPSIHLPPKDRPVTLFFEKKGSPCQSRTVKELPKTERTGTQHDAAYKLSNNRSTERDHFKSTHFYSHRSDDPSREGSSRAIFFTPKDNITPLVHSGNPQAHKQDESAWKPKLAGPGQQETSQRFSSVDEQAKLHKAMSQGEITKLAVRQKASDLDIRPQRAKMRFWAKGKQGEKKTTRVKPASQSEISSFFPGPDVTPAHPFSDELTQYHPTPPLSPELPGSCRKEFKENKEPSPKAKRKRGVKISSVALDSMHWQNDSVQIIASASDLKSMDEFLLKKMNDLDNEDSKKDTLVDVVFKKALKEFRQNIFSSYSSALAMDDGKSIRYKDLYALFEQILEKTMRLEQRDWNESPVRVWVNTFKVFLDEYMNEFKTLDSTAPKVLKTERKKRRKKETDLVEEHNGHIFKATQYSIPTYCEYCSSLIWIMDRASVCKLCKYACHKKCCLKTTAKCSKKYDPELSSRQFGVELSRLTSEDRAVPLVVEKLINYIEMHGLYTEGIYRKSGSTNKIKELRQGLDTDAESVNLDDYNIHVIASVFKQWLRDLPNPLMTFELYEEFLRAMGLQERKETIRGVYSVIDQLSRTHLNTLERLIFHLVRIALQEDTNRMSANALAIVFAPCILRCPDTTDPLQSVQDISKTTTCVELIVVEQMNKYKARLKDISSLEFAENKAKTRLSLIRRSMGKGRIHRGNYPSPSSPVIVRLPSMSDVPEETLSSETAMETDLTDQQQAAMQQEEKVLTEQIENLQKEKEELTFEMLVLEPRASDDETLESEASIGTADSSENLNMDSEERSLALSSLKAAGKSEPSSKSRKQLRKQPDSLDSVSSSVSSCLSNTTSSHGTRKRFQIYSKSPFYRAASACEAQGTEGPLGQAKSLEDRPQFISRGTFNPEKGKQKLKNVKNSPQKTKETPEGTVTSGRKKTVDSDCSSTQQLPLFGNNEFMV
UniProt Q9QUI0: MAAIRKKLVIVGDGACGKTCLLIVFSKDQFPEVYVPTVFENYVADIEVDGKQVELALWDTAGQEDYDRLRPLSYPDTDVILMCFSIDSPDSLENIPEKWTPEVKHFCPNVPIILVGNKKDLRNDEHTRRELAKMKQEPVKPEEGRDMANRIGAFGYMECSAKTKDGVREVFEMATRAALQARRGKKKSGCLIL

This assay deals with Myosin 9A (mouse (endogenous in immortalized mouse podocytes)) (UniProt Q8C170). Briefly: co-IP; immortalized mouse podocyte lysates (1% NP-40, 1% Triton X, 50 mM Hepes, 150 mM NaCl, 0.1 mM EDTA, 0.1 mM Neocuproine), pre-cleared with protein A agarose, anti-MYO9A rabbit polyclonal antibody at 4°C, agarose beads overnight, washed with PBS + protease inhibitors, western blot for RhoA and Myo9A. For orientation: Immunoblotting shows a protein as a band on a membrane.

These are yes or no findings as the source states them, for the method shown. In cells and extracts the contact can be indirect. Some entries that bind do so weakly or less than the wild type.

Regarding RhoA (from UniProt Q9QUI0 1-193), the binding result is “binds”.
